Reference: PubChem BioAssay AID588497 (NMMLSC, 2011)
Screen size: about 360,000 compounds; about 780 (0.22%) were called active. Inconclusive means that the source gave no clear call. Such entries were picked first, then a sample of the others. Cut-off read from the data, not from the text of the source: active = inhibition above about 35% (passing the limit was not always enough); inconclusive = no clear call, values can overlap the other calls.

System: Botulinum neurotoxin type F light chain protease (Clostridium botulinum)
Experiment: BoNT/F light chain protease inhibitors, primary screen, biochemical, flow cytometry, MLPCN library (AID 588497); note: plate controls were buffer without enzyme for full effect and enzyme alone for no effect
Conditions: Multiplex microsphere protease cleavage assay, at 10 µM, active compounds read high

Row | Compound | inhibition
1 | COc1ccc(-c2nc(CS(=O)CC(=O)NC3CCCCC3)c(C)o2)cc1OC (centres undefined) | inactive: -2.6%
2 | COCCCn1c(SCc2cc(=O)[nH]c3ccccc23)nnc1-c1ccco1 | inactive: -26.1%
3 | COc1ccc(-n2c(C)nnc2SCC(=O)N2CCOCC2)cc1 | active: 47.2%
4 | Cc1cccc(N2CCN(C(=O)NC3CCCCC3)CC2C)c1 (centres undefined) | inconclusive: -26.4%
5 | COc1ccc(Br)cc1/C=N/NC(=O)c1cccnc1 | inconclusive: 8.5%
6 | CCC(C)c1ccc(NC(=O)NCCN2CCCCC2)cc1 (centres undefined) | inconclusive: 2.5%
7 | CN(C)c1ccc(-c2cc([C@H]3[C@@H]4C=CCC[C@@]4(C)C(=O)N3Cc3ccccc3)ccc2F)cc1 | inactive: -10%
8 | CCCCN(CC)CCNC(=O)c1cc2c(-c3ccccc3F)nn(C)c2s1 | inactive: 0.2%
9 | CCN1CCN(CC(=O)Nc2ccc(N(C)C)cc2)CC1 | inconclusive: -4.3%
10 | Cc1ccc(NC(=O)c2cccs2)cc1NC(=O)c1ccc(F)cc1 | inconclusive: -13.1%
11 | CN(C)c1ccc(NC(=O)CCN2C(=O)c3cccc([N+](=O)[O-])c3C2=O)cc1 | inconclusive: -44.9%
12 | COc1cccc(CNC(=O)C2CCN(c3nn4c(=O)cc(C)nc4s3)CC2)c1 | inactive: -3.1%
13 | CCn1c(=NC(=O)CS(=O)(=O)c2ccc(F)cc2)sc2cccc(OC)c21 | inconclusive: 6.4%
14 | O=C(Cn1cnc2sc(-c3ccccc3)cc2c1=O)NCCc1ccccc1 | active: 44.7%
15 | Cc1ccc(Cn2c(=O)c3ccccc3n3c(SCC(=O)N4CCCCC4C)nnc23)cc1 (centres undefined) | inactive: 2.2%
16 | COC(=O)c1c(-c2ccccc2)noc1C | inactive: -3.1%
17 | O=C(COC(=O)COc1ccccc1)Nc1ccc(Cl)cn1 | inconclusive: 6.2%
18 | COc1ccccc1/C=C1/C(=O)N(c2ccc([N+](=O)[O-])cc2)N=C1C | inconclusive: -26.8%
19 | COc1ccccc1-c1nc(C#N)c(NCc2ccc(F)cc2)o1 | inactive: 4.3%
20 | N#CCCCSc1ncccc1-c1nc2ccccc2[nH]1 | inactive: 1.4%

Row | Compound | inhibition
21 | Cc1nc(Br)c(Br)c(C)c1Br | inconclusive: -9.6%
22 | O=C(Nc1ccc2c(c1)OCO2)c1ccc(Cl)s1 | inactive: -9.9%
23 | CCOC(=O)N(C)S(=O)(=O)c1ccccc1[N+](=O)[O-] | inactive: -1.2%
24 | OCCC1CN(Cc2ccc(F)cc2Cl)CCN1CCc1ccccc1 (centres undefined) | inconclusive: 4.7%
25 | Cn1cccc1/C=N\NC(=O)C1COc2ccc(C(C)(C)C)cc2O1 (centres undefined) | inactive: -7.8%
26 | CC(=O)NC1c2ccccc2C(=O)N1Cc1ccccc1 (centres undefined) | inactive: 4.7%
27 | CC(C)c1ccc(/C=C/c2[nH]c(=O)[nH]c(=O)c2[N+](=O)[O-])cc1 | active: 37.3%
28 | CC(OC(=O)CNS(=O)(=O)c1ccc2ccccc2c1)C(=O)N(C)c1ccccc1 (centres undefined) | inactive: 0.8%
29 | Cc1cccc(OCCn2ccnc2)c1 | inconclusive: 11.7%
30 | CCN(CC(=O)Nc1ccc(C#N)c(Cl)c1)CC(=O)NC1CCS(=O)(=O)C1 (centres undefined) | inconclusive: 1.1%
31 | C[C@]12C=CC(=O)C=C1CC[C@@H]1C2[C@@H](O)C[C@@]2(C)C1CC[C@]2(O)C(=O)COC(=O)CCC(=O)O (some centres undefined) | inconclusive: 1.2%
32 | OC[C@@H]1CN(Cc2ccc(Cl)cc2)C[C@H](n2cnc3c(N4CCCC4)ncnc32)O1 | inactive: -0.8%
33 | CCN(CC(=O)Nc1ccc(OC)cc1)C(=O)Cc1cccs1 | inactive: 7.6%
34 | O=C(OCc1ccccc1Cl)C1CC(=O)N(Cc2ccco2)C1 (centres undefined) | inconclusive: 2.8%
35 | CCCCCC1CC(CC/C(C)=N/NC(N)=O)C(=O)O1 (centres undefined) | inconclusive: -39.3%
36 | COc1ccc(Cc2nnc(NC(=O)c3ccc(OC)c(OC)c3)s2)cc1 | inconclusive: -23.5%
37 | CCCCn1c(O)c(/C=N/N2CCOCC2)c(=O)[nH]c1=S | inconclusive: 19.7%
38 | CCN(CC)C(=O)COc1ccc2oc(-c3ccco3)cc(=O)c2c1 | inactive: 0.1%
39 | Cc1nn(-c2ncc(C(F)(F)F)cc2Cl)c(=O)n1-c1ccccc1F | inactive: -5.6%
40 | Cc1cc(C)c(S(=O)(=O)NCc2ccc3c(c2)OCO3)cc1C | inconclusive: -15.7%

Row | Compound | inhibition
41 | O=C(O)c1ccccc1N=Nc1c(O)[nH]c2ccc([N+](=O)[O-])cc12 | inconclusive: -21.6%
42 | CCNS(=O)(=O)c1ccc(NC(=S)NCC2CCCO2)cc1 (centres undefined) | inactive: -5.6%
43 | Cc1nnc(Cc2ccco2)c2n[nH]c(C)c12 | inactive: -6.4%
44 | O=C(CSc1ccc2c(c1)OCCO2)Nc1ncccc1O | inconclusive: -18%
45 | C=CCOc1ccccc1CN1CCC(Cc2ccccc2)CC1 | inconclusive: -8.2%
46 | CCN(CC)C(=O)c1ccc(-c2nnc(Nc3cccc(O)c3)c3ccccc23)cc1 | inconclusive: -0.5%
47 | O=C(NC1C2CCCC1CN(C1CC1)C2)c1ccc(Cl)cc1 (centres undefined) | inconclusive: 10.6%
48 | COc1ccc(Cc2nnc(NC(=O)c3ccccc3Cl)s2)cc1OC | inconclusive: -4.3%
49 | COc1ccccc1C(C(=O)NC1CCCCC1)N(C(=O)c1csnn1)C1CC1 (centres undefined) | inactive: -12.3%
50 | O=[N+]([O-])c1ccccc1NS(=O)(=O)c1ccccc1 | inactive: -1.7%
51 | COC(=O)[C@H](C)NC(=O)NCc1ccccc1 | inconclusive: -10%
52 | CC(=O)Oc1ccc(-c2ccc(C(=O)OCC(=O)N(C)CC(=O)Nc3ccccc3Cl)cc2)cc1 | inconclusive: -6.1%
53 | O=C(Nc1ccc(F)cc1)c1cc2c(s1)CCCC2 | inconclusive: -16.9%
54 | COc1ccc(NS(=O)(=O)c2ccc(C)c(C(=O)N3CCC3)c2)cc1 | inconclusive: -11.2%
55 | O=C(Cc1ccccc1[N+](=O)[O-])Nc1ccc(S(=O)(=O)N2CCCC2)cc1 | inconclusive: 6%
56 | COc1ccc(-c2cc3c(=O)n(CC(=O)N4CCN(C)CC4)ncn3n2)cc1 | inactive: -13.6%
57 | C#CC(C)(C)NC(=O)c1ccc(-c2ccccc2F)cc1 | inconclusive: -19%
58 | CN(C(=O)CCS(=O)(=O)c1ccc2c(c1)oc(=O)n2C)C1CCCCC1 | inactive: 1.3%
59 | Cc1n[nH]c(=S)n1/N=C/c1cccc(OCc2ccccc2)c1 | inactive: -7.1%

13 structures out of the list, sorted by number of heavy atoms, low to high:
Row | Compound | inhibition
51 | COC(=O)[C@H](C)NC(=O)NCc1ccccc1 | inconclusive: -10%
53 | O=C(Nc1ccc(F)cc1)c1cc2c(s1)CCCC2 | inconclusive: -16.9%
57 | C#CC(C)(C)NC(=O)c1ccc(-c2ccccc2F)cc1 | inconclusive: -19%
42 | CCNS(=O)(=O)c1ccc(NC(=S)NCC2CCCO2)cc1 (centres undefined) | inactive: -5.6%
40 | Cc1cc(C)c(S(=O)(=O)NCc2ccc3c(c2)OCO3)cc1C | inconclusive: -15.7%
45 | C=CCOc1ccccc1CN1CCC(Cc2ccccc2)CC1 | inconclusive: -8.2%
54 | COc1ccc(NS(=O)(=O)c2ccc(C)c(C(=O)N3CCC3)c2)cc1 | inconclusive: -11.2%
48 | COc1ccc(Cc2nnc(NC(=O)c3ccccc3Cl)s2)cc1OC | inconclusive: -4.3%
55 | O=C(Cc1ccccc1[N+](=O)[O-])Nc1ccc(S(=O)(=O)N2CCCC2)cc1 | inconclusive: 6%
56 | COc1ccc(-c2cc3c(=O)n(CC(=O)N4CCN(C)CC4)ncn3n2)cc1 | inactive: -13.6%
49 | COc1ccccc1C(C(=O)NC1CCCCC1)N(C(=O)c1csnn1)C1CC1 (centres undefined) | inactive: -12.3%
46 | CCN(CC)C(=O)c1ccc(-c2nnc(Nc3cccc(O)c3)c3ccccc23)cc1 | inconclusive: -0.5%
52 | CC(=O)Oc1ccc(-c2ccc(C(=O)OCC(=O)N(C)CC(=O)Nc3ccccc3Cl)cc2)cc1 | inconclusive: -6.1%

2 of the compounds above, with each value named:
COc1ccc(Cc2nnc(NC(=O)c3ccccc3Cl)s2)cc1OC
  inhibition: inconclusive: -4.3%
COc1ccccc1C(C(=O)NC1CCCCC1)N(C(=O)c1csnn1)C1CC1 (centres undefined)
  inhibition: inactive: -12.3%
